Library screen at single concentrations

Chains of the proteins cited; added tags and fusions are not shown. Residues count along the entry.
UniProt Q8IDJ8, 1-583: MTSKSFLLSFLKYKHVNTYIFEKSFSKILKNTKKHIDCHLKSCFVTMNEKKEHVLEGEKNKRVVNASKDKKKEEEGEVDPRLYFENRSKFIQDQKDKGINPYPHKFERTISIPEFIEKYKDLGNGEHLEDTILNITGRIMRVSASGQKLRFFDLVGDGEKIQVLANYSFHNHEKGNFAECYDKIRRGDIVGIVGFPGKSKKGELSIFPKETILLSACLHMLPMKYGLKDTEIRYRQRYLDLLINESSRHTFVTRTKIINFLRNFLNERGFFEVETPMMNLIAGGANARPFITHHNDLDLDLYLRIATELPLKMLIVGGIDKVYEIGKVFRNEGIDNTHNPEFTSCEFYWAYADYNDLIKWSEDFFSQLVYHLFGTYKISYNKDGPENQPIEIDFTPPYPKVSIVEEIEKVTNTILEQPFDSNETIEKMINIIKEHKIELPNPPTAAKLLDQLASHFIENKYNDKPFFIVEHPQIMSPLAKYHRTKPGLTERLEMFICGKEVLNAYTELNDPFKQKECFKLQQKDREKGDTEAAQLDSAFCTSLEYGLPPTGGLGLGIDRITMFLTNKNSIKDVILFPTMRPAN
UniProt P9WFT3, whole entry: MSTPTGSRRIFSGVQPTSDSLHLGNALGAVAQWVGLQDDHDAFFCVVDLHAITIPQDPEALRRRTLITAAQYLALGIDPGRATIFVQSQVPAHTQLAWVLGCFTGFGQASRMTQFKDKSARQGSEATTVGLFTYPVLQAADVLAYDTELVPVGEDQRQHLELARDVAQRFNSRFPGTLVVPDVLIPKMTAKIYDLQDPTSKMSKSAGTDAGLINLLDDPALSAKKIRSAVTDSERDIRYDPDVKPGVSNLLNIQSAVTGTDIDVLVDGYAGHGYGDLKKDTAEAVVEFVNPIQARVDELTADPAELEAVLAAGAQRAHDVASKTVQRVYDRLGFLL

Source: ChEMBL document CHEMBL3988442, “University of Dundee, Small-Polar-MMV Screening Library” (2021).

Results are given as percent effect. How 0% and 100% were set is not recorded. Most values in the screen are low, and negative values occur. This is an unselected part of the compounds tested.

PfKRS1: 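Lysine-tRNA ligase, Plasmodium falciparum 3D7 (UniProt Q8IDJ8). Enzyme assay of the cytosolic lysyl-tRNA synthetase in 384-well plates, read by luminescence. Concentration: 30 µM. Higher reads as stronger inhibition, judged from the few compounds that gave an IC50. Size under these conditions: about 69,000 compounds, about 49 of them at 50% or above in at least one test.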
MtTrpRS: 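Tryptophan-tRNA ligase, Mycobacterium tuberculosis (UniProt P9WFT3). Enzyme assay of tryptophanyl-tRNA synthetase; the read-out is not stated. Tested at 10 µM. Direction is not recorded; retested compounds ran higher, which suggests that high means inhibition. About 65,000 compounds were tested under these conditions; 0.098% (about 64) showed 50% or more at least once.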

structure: CC1c2ncc(COCC3CC3)n2CCN1S(=O)(=O)N(C)C (stereo not drawn)
PfKRS1: 6.461%
MtTrpRS: -4.423%

structure: COc1ccsc1C(=O)NC1CCN(c2ccc(C#N)cc2)CC1
PfKRS1: 4.859%
MtTrpRS: -2.271%

structure: Cc1ccc(CN2CCC3(CCCN3C(=O)C(C)C)CC2)o1
PfKRS1: -0.09198%
MtTrpRS: -8.14%

structure: CCn1cnnc1CNC(=O)NCC(C)(CC)N1CCOCC1 (stereo not drawn)
PfKRS1: 2.089%
MtTrpRS: 6.308%

structure: Cc1nc(NC(C)C)nc2c1CN(Cc1cccs1)CC2
PfKRS1: -1.367%
MtTrpRS: 4.167%

structure: Cc1nnc(CSCc2ccc(OCC(F)(F)F)nc2)o1
PfKRS1: 0.9178%
MtTrpRS: -5.556%

structure: CC(C)N(Cc1ccccn1)C(=O)CN(C)C(=O)c1cccs1
PfKRS1: 3.029%
MtTrpRS: 2.907%

structure: Cc1nn(Cc2ccccc2)c(C)c1CNC1CCc2ncnn2C1 (stereo not drawn)
PfKRS1: -0.08039%
MtTrpRS: 6.19%

structure: CC(=O)N(Cc1ncc(C(C)C)o1)C1CCN(Cc2ccno2)C1 (stereo not drawn)
PfKRS1: -1.864%
MtTrpRS: -4.548%

structure: COc1cc(N2C[C@@H]3CC[C@H](C2)N(CC2CCC2)C3=O)ncn1
PfKRS1: 4.191%
MtTrpRS: -1.201%

structure: CCCN1CC(NC(=O)Nc2nc(C)n(C(C)C)n2)CC1=O (stereo not drawn)
PfKRS1: -0.01111%
MtTrpRS: 1.001%

structure: CCc1ccc(-c2nn3c(nc2=O)-c2ccccc2NC3C(=O)O)cc1 (stereo not drawn)
PfKRS1: -0.5548%
MtTrpRS: -0.3276%

structure: Cc1ccc(OCCCC(=O)NC(C)c2ccc(S(N)(=O)=O)cc2)cc1 (stereo not drawn)
PfKRS1: 0.8354%
MtTrpRS: -0.8614%

structure: CC(C)c1cc(C(=O)N2CCN(Cc3ccc(C#N)cc3)CC2)n[nH]1
PfKRS1: -3.971%
MtTrpRS: 6.772%

structure: CC(=O)N1CCN(C(=O)CN2CCN(c3cccc(C)c3)CC2)CC1
PfKRS1: 4.155%
MtTrpRS: 1.616%

structure: COc1ccc(NC(C)C(=O)N2CCN(c3ccccc3)CC2)cn1 (stereo not drawn)
PfKRS1: 2.856%
MtTrpRS: 0.7936%

structure: CCCC(=O)NC1CCCN(c2nc3ccccc3cc2CO)C1 (stereo not drawn)
PfKRS1: -3.469%
MtTrpRS: 1.235%

structure: COc1ccc(OC)c(C(=O)N2CCCCC2Cn2cccn2)c1 (stereo not drawn)
PfKRS1: 0.5483%
MtTrpRS: 0.3894%

structure: CN1CCOC[C@H]1c1nc(-c2cccc(F)c2)c[nH]1
PfKRS1: 4.024%
MtTrpRS: 1.581%

structure: CC(O)CNCc1ccccc1C(F)(F)F (stereo not drawn)
PfKRS1: 2.85%
MtTrpRS: -1.883%

structure: O=C([C@H]1C[C@H]2OCC[C@H]2N(Cc2ccccc2F)C1)N1CCCCO1
PfKRS1: 5.396%
MtTrpRS: -5.942%

structure: CCCc1nc(C)cc(N2CCC3(CCC(=O)N(CC4CC4)C3)CC2)n1
PfKRS1: 6.102%
MtTrpRS: -5.365%

structure: Cc1ncccc1Oc1nccnc1C1CCN(S(C)(=O)=O)CC1
PfKRS1: 2.251%

structure: O=C(NCCNc1ncccn1)N1CCSCC1
PfKRS1: 4.335%
MtTrpRS: -4.773%

structure: CCC(CO)NCc1ccc(-c2ccccc2F)o1 (stereo not drawn)
PfKRS1: 4.207%
MtTrpRS: 3.018%

structure: CC(C)C(CNC(=O)NCc1cc[nH]n1)N1CCOCC1 (stereo not drawn)
PfKRS1: 2.295%
MtTrpRS: -2.08%

structure: O=C(c1ccco1)N1CCOCC2(C1)CN(c1ccccn1)C(=O)CO2 (stereo not drawn)
PfKRS1: -2.217%
MtTrpRS: -1.33%

structure: COc1ccc2c(c1)NC(=O)C2OC(=O)Cc1ccccc1C (stereo not drawn)
PfKRS1: 3.743%
MtTrpRS: -5.318%

structure: O=C(NS(=O)(=O)c1ccccc1Cl)c1cccc2c1OCCO2
PfKRS1: 2.678%
MtTrpRS: -0.07128%